This assay has as its target mature human GDF8 (growth and differentiation factor-8, myostatin) (human) (UniProt O14793). As to the kind of experiment: soluble ActRIIB as competitor: inhibition of the binding of biotinylated GDF8 (20 ng/ml) to plate-coated ActRIIB-Fc; axis OD 450 nm.

The chains behind the UniProt entries cited, without tags or fusion partners. Where a name states a change or a piece, a line headed by the entry shows the natural chain unless it says otherwise.
UniProt O14793: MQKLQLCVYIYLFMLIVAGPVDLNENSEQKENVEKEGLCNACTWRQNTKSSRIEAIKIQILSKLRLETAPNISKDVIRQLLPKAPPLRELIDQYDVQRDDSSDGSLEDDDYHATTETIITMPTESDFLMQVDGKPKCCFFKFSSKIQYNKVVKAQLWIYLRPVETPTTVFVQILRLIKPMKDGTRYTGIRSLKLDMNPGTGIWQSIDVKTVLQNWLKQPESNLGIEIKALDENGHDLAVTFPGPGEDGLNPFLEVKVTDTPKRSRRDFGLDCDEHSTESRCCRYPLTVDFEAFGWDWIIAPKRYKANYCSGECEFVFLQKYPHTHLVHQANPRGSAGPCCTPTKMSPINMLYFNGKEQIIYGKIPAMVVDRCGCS

This note sets out measurements from patent US20090148436A1.

Results are given in words; binding and its absence hold for the method and conditions named. Some entries that bind do so weakly or less than the wild type. Sequences can lack the tags named with a protein.

B1: Recombinant ActRIIB-Fc chimera (R&D Systems, Cat. No. 339-RB/CF) (Fc fusion, not shown: a dimerising Fc or GST)
chain: SGRGEAETRECIYYNANWELERTNQSGLERCEGEQDKRLHCYASWRNSSGTIELVKKGCWLDDFNCYDRQECVATEENPQVYFCCCEGNFCNERFTHLPEAGGPEVTYEPPPTAPT
With B1, the binding result was “binds”.
